Data published in paper PMC9590148.
These are yes or no findings as the source states them, for the method shown. Binding seen in cells or lysates may run through a third protein. Some binding calls cover weakened binding; strength is not graded here.

The chains behind the UniProt entries cited, without tags or fusion partners.
UniProt P46937: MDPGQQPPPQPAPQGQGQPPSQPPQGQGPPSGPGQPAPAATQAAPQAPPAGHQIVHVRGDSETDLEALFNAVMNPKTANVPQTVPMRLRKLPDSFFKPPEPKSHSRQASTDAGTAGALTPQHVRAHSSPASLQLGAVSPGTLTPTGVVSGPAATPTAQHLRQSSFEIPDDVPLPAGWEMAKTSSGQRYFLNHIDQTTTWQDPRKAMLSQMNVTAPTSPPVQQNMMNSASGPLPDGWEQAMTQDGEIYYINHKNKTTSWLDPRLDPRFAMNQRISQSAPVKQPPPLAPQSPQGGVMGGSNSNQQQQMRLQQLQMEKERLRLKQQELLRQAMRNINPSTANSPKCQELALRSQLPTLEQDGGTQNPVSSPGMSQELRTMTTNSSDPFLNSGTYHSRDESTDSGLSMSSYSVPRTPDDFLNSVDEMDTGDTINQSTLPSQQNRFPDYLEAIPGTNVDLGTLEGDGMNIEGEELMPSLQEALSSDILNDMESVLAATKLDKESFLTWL
UniProt Q9BYM8: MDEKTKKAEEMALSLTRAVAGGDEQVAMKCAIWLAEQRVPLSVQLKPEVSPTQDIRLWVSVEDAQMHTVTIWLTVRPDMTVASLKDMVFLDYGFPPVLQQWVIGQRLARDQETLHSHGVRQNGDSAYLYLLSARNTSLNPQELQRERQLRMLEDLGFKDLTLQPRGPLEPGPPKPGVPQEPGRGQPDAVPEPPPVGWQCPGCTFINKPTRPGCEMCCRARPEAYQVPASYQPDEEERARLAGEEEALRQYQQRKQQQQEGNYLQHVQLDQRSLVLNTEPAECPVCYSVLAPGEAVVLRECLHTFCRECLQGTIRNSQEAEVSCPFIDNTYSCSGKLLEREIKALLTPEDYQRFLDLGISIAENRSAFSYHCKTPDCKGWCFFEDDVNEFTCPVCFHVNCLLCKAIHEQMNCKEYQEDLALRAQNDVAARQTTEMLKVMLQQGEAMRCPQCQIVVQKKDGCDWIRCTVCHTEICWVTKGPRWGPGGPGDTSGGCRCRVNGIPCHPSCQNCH

How the values were obtained:
Myc-YAP full-length = Myc-YAP full-length (UniProt P46937); test: co-IP; HEK293 cells co-transfected with Myc-YAP and Flag-RBCK1 (full-length or deletion mutants), NP-40 lysis buffer after 24 h; lysates precleared with IgG, IP with anti-Myc antibody, western blot with anti-Flag antibody; rabbit IgG as negative control
[1] = biological target: YAP (Yes-associated protein), endogenous (human (endogenous in MDA-MB-231)) (UniProt P46937); test: co-IP; endogenous proteins in total lysate of MDA-MB-231 cells (RIPA lysis buffer), precleared with rabbit IgG; IP with anti-RBCK1 or anti-YAP antibody, bound protein detected with anti-YAP or anti-RBCK1 antibody

| binding (Myc-YAP full-length) | binding [1] | Substance |
| --- | --- | --- |
| binds | – | Flag-RBCK1 full-length (from UniProt Q9BYM8 1-510) |
| – | binds | RBCK1 (RANBP2-type and C3HC4-type zinc finger-containing 1), endogenous (from UniProt Q9BYM8 1-510) |
